The results in this text go back to patent publication US20220162322A1.

Amino acid sequences for entries named in this document (tags omitted). A change or cut given only in a name is not applied to a line headed by its entry.
UniProt Q8WTT0: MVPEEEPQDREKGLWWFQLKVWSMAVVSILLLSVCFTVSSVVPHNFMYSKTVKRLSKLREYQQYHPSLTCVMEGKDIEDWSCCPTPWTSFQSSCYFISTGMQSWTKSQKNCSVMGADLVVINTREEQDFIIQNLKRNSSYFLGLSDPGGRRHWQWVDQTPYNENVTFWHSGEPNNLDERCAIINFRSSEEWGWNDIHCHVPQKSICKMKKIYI

These are yes or no findings as the source states them, for the method shown. Some entries that bind do so weakly or less than the wild type.

The chains are these.
B1: 3E05_var1 (antibody, human IgG1, V domains shown)
VH: EVQLVESGGGLVKPGGSLRLSCAASGFTFSSYTMSWVRQAPGKGLEWVAYISSGGGNTYYPDSVKGRFTISRDNAKNSLYLQMNSLRAEDTAVYYCARHDYYDGGLYYAMDYWGQGTLVTVSS
VL: DIVMTQSPDSLAVSLGERATINCKASQSVDYDGDSSMNWYQQKPGQPPKLLISAASTLESGVPSRFSGSGSGTDFTLTISSLQAEDVAVYYCQQTNEDPPTFGGGTKVEIK
B2: 3E05_var11 (antibody, human IgG1, V domains shown)
VH: EVQLVESGGGLVKPGGSLRLSCAASGFTFSSYTMSWVRQAPGKGLEWVAYISSGGGQTYYPDSVKGRFTISRDNAKNSLYLQMNSLRAEDTAVYYCARHDYYDGGLYYAMDYWGQGTLVTVSS
VL: DIVMTQSPDSLAVSLGERATINCKSSQSVDYDGDSSMNWYQQKPGQPPKLLIYAASTLESGVPSRFSGSGSGTDFTLTISSLQAEDVATYYCQQTNEDPPTFGGGTKVEIK
B3: 3E05_var16 (antibody, human IgG1, V domains shown)
VH: EVQLVESGGGLVKPGGSLRLSCAASGFTFSSYTMSWVRQAPGKGLEWVAYISSGGGQTYYPDSVKGRFTISRDNAKNSLYLQMNSLRAEDTAVYYCARHDYYEGGLYYAMDYWGQGTLVTVSS
VL: DIVMTQSPDSLAVSLGERATINCKASQSVDYEGDSSMNWYQQKPGQPPKLLISAASTLESGVPSRFSGSGSGTDFTLTISSLQAEDVAVYYCQQTNEDPPTFGGGTKVEIK
B4: 3E05_var7 (antibody, human IgG1, V domains shown)
VH: EVQLVESGGGLVKPGGSLRLSCAASGFTFSSYTMSWVRQAPGKGLEWVAYISSGGGQTYYPDSVKGRFTISRDNAKNSLYLQMNSLRAEDTAVYYCARHDYYDGGLYYAMDYWGQGTLVTVSS
VL: DIVMTQSPDSLAVSLGERATINCKSSQSVDYDGDSSMNWYQQKPGQPPKLLISAASTLESGVPSRFSGSGSGTDFTLTISSLQAEDVATYYCQQTNEDPPTFGGGTKVEIK
B5: 3E05_var3 (antibody, human IgG1, V domains shown)
VH: EVQLVESGGGLVKPGGSLRLSCAASGFTFSSYTMSWVRQAPGKGLEWVAYISSGGGQTYYPDSVKGRFTISRDNAKNSLYLQMNSLRAEDTAVYYCARHDYYDGGLYYAMDYWGQGTLVTVSS
VL: DIVMTQSPDSLAVSLGERATINCKASQSVDYDGDSSMNWYQQKPGQPPKLLISAASTLESGVPSRFSGSGSGTDFTLTISSLQAEDVAVYYCQQTNEDPPTFGGGTKVEIK
B6: 3E05_var5 (antibody, human IgG1, V domains shown)
VH: EVQLVESGGGLVKPGGSLRLSCAASGFTFSSYTMSWVRQAPGKGLEWVAYISSGGGNTYYPDSVKGRFTISRDNAKNSLYLQMNSLRAEDTAVYYCARHDYYDGGLYYAMDYWGQGTLVTVSS
VL: DIVMTQSPDSLAVSLGERATINCKSSQSVDYDGDSSMNWYQQKPGQPPKLLISAASTLESGVPSRFSGSGSGTDFTLTISSLQAEDVATYYCQQTNEDPPTFGGGTKVEIK
B7: 3E05_var10 (antibody, human IgG1, V domains shown)
VH: QVQLVESGGGLVKPGGSLRLSCAASGFTFSSYTMSWVRQAPGKGLEWVSYISSGGGNTYYADSVKGRFTISRDNAKNSLYLQMNSLRAEDTAVYYCARHDYYDGGLYYAMDYWGQGTLVTVSS
VL: DIVMTQSPDSLAVSLGERATINCKSSQSVDYDGDSSMNWYQQKPGQPPKLLIYAASTLESGVPSRFSGSGSGTDFTLTISSLQAEDVATYYCQQTNEDPPTFGGGTKVEIK
B8: 3E05_var4 (antibody, human IgG1, V domains shown)
VH: EVQLVESGGGLVKPGGSLRLSCAASGFTFSSYTMSWVRQAPGKGLEWVAYISSGGGQTYYPDSVKGRFTISRDNAKNSLYLQMNSLRAEDTAVYYCARHDYYEGGLYYAMDYWGQGTLVTVSS
VL: DIVMTQSPDSLAVSLGERATINCKASQSVDYDGDSSMNWYQQKPGQPPKLLISAASTLESGVPSRFSGSGSGTDFTLTISSLQAEDVAVYYCQQTNEDPPTFGGGTKVEIK
B9: 3E05_var6 (antibody, human IgG1, V domains shown)
VH: QVQLVESGGGLVKPGGSLRLSCAASGFTFSSYTMSWVRQAPGKGLEWVSYISSGGGNTYYADSVKGRFTISRDNAKNSLYLQMNSLRAEDTAVYYCARHDYYDGGLYYAMDYWGQGTLVTVSS
VL: DIVMTQSPDSLAVSLGERATINCKSSQSVDYDGDSSMNWYQQKPGQPPKLLISAASTLESGVPSRFSGSGSGTDFTLTISSLQAEDVATYYCQQTNEDPPTFGGGTKVEIK
B10: 3E05_var15 (antibody, human IgG1, V domains shown)
VH: EVQLVESGGGLVKPGGSLRLSCAASGFTFSSYTMSWVRQAPGKGLEWVAYISSGGGQTYYPDSVKGRFTISRDNAKNSLYLQMNSLRAEDTAVYYCARHDYYDGGLYYAMDYWGQGTLVTVSS
VL: DIVMTQSPDSLAVSLGERATINCKASQSVDYEGDSSMNWYQQKPGQPPKLLISAASTLESGVPSRFSGSGSGTDFTLTISSLQAEDVAVYYCQQTNEDPPTFGGGTKVEIK
B11: 3E05_var12 (antibody, human IgG1, V domains shown)
VH: EVQLVESGGGLVKPGGSLRLSCAASGFTFSSYTMSWVRQAPGKGLEWVAYISSGGGQTYYPDSVKGRFTISRDNAKNSLYLQMNSLRAEDTAVYYCARHDYYEGGLYYAMDYWGQGTLVTVSS
VL: DIVMTQSPDSLAVSLGERATINCKSSQSVDYDGDSSMNWYQQKPGQPPKLLIYAASTLESGVPSRFSGSGSGTDFTLTISSLQAEDVATYYCQQTNEDPPTFGGGTKVEIK
B12: 3E05_var13 (antibody, human IgG1, V domains shown)
VH: EVQLVESGGGLVKPGGSLRLSCAASGFTFSSYTMSWVRQAPGKGLEWVAYISSGGGNTYYPDSVKGRFTISRDNAKNSLYLQMNSLRAEDTAVYYCARHDYYDGGLYYAMDYWGQGTLVTVSS
VL: DIVMTQSPDSLAVSLGERATINCKASQSVDYEGDSSMNWYQQKPGQPPKLLISAASTLESGVPSRFSGSGSGTDFTLTISSLQAEDVAVYYCQQTNEDPPTFGGGTKVEIK
B13: 3E05_var2 (antibody, human IgG1, V domains shown)
VH: QVQLVESGGGLVKPGGSLRLSCAASGFTFSSYTMSWVRQAPGKGLEWVSYISSGGGNTYYADSVKGRFTISRDNAKNSLYLQMNSLRAEDTAVYYCARHDYYDGGLYYAMDYWGQGTLVTVSS
VL: DIVMTQSPDSLAVSLGERATINCKASQSVDYDGDSSMNWYQQKPGQPPKLLISAASTLESGVPSRFSGSGSGTDFTLTISSLQAEDVAVYYCQQTNEDPPTFGGGTKVEIK
B14: 3E05_var14 (antibody, human IgG1, V domains shown)
VH: QVQLVESGGGLVKPGGSLRLSCAASGFTFSSYTMSWVRQAPGKGLEWVSYISSGGGNTYYADSVKGRFTISRDNAKNSLYLQMNSLRAEDTAVYYCARHDYYDGGLYYAMDYWGQGTLVTVSS
VL: DIVMTQSPDSLAVSLGERATINCKASQSVDYEGDSSMNWYQQKPGQPPKLLISAASTLESGVPSRFSGSGSGTDFTLTISSLQAEDVAVYYCQQTNEDPPTFGGGTKVEIK
B15: 3E05_var8 (antibody, human IgG1, V domains shown)
VH: EVQLVESGGGLVKPGGSLRLSCAASGFTFSSYTMSWVRQAPGKGLEWVAYISSGGGQTYYPDSVKGRFTISRDNAKNSLYLQMNSLRAEDTAVYYCARHDYYEGGLYYAMDYWGQGTLVTVSS
VL: DIVMTQSPDSLAVSLGERATINCKSSQSVDYDGDSSMNWYQQKPGQPPKLLISAASTLESGVPSRFSGSGSGTDFTLTISSLQAEDVATYYCQQTNEDPPTFGGGTKVEIK
B16: 3E05_var9 (antibody, human IgG1, V domains shown)
VH: EVQLVESGGGLVKPGGSLRLSCAASGFTFSSYTMSWVRQAPGKGLEWVAYISSGGGNTYYPDSVKGRFTISRDNAKNSLYLQMNSLRAEDTAVYYCARHDYYDGGLYYAMDYWGQGTLVTVSS
VL: DIVMTQSPDSLAVSLGERATINCKSSQSVDYDGDSSMNWYQQKPGQPPKLLIYAASTLESGVPSRFSGSGSGTDFTLTISSLQAEDVATYYCQQTNEDPPTFGGGTKVEIK
B17: chimeric mAb 3E05 (parental mouse 3E05 VH/VL on human IgG1) (antibody, V domains shown)
VH: EVKLVESGGGLVKPGGSLKLSCAASGFTFSSYTMSWVRQTPEKRLEWVAYISSGGGNTYYPDSVKGRFTISRDNARNTLYLQMSSLRSEDTAMYYCARHDYYDGGLYYAMDYWGQGTSVTVSS
VL: DIVLTQSPASLAVSLGQRATISCKASQSVDYDGDSSMNWYQQKPGQPPKLLICAASTLESGIPARFSGSGSGTDFTLNIHPVEEEDAATYYCQQTNEDPPTFGGGTKLEIK
B18: chimeric mAb 21E06 (antibody, human IgG1, V domains shown)
VH: EVKLVESGGGLVKSGGSLKLSCEVSGFTFSSYTISWVRQTPEKRLEWVAYISSGGDNAYYPDSVKGRFTISRDNARNTLYLQMSSLRSEDTAMYYCARHLYYGDYFYVMDYWGQGTSVTVSS
VL: DIVLTQSPASLAVSLGQRATISCKASQSVDYDGDNCLHWFQQKPGQPPKLLIYAASNLESGIPARFSGSGSGTDFTLNIHPVEEEDAATYYCQQSNEDPPTFGGGTKLEIK
B19: chimeric mAb 25E06 (antibody, human IgG1, V domains shown)
VH: EVKLVESGGGLVKPGGSLKLSCAASGFTFSSYTMSWVRQTPEKRLEWVAYISGVGGDTYYPDSVKGRFTISRDNARNTLYLQMSSLRSEDTAMFYCARHHYSHYFWYFDVWGAGTTVTVSS
VL: DIVLTQSPASLAVSLGQRATISCKASQSVDYDGDGFMNWYQQKPGQPPKLLIYAASNLESGIPARFSGSGSGADFTLNIHPVEEEDAATYYCQQSNEDPPTFGGGTKLEIK

In the first assay the target is BDCA-2 (CLEC4C, CD303) on human plasmacytoid dendritic cells (purified pDC or pDC within PBMC) (human) (UniProt Q8WTT0). Kind of assay: flow cytometry on pDC (FIG. 5).
Take B1: the binding entry is given as “binds”.
For B2, the binding entry is listed as “binds”.
As for B3, the binding result is on record as “binds”.
B4: the binding entry was “binds”.
Turning to B5, the binding result is “binds”.
As to B6, the binding result was “binds”.
B7: the binding entry was “binds”.
For B8, the binding entry was “binds”.
As for B9, the binding entry was “binds”.
For B10, the binding result is “binds”.
In the case of B11, the binding entry is on record as “binds”.
In the case of B12, the binding entry is “binds”.
Still for that read-out and setting: the result for B13 reads “binds”; that for B14, “binds”.
On to B15, for which the binding result is recorded as “binds”.
With B16, the binding result is listed as “binds”.

Another assay has the same target. Kind of assay: flow cytometry on purified human pDC (FIG. 2). (A flow cytometer gives signals particle by particle.)
Regarding B17, the binding result was “binds”.
With B18, the binding result was “binds”.
On to B19, for which the binding result is listed as “binds”.

The target is the same in the next assay. Kind of assay: flow cytometry, 10 ug/ml purified mAb on purified human pDC.
Take B17: the binding entry is given as “binds”.
With B18, the binding result is “binds”.
With B19, the binding entry is listed as “binds”.
